Results from patent US20240101645A1.
These are yes or no findings as the source states them, for the method shown. Some results given as binding are weak or reduced against the parent protein; the word gives no strength.

Target: SARS-CoV-2 S2 subunit antigen (SARS-CoV-2) (UniProt P0DTC2)
Assay: multiplex bead assay

B1: COV_3103 (antibody, V domains shown)
VH: EVQLVESGGGLVQPGRSLRLSCVASGFIVENFAMHWVRQAPGKGLEWVSGITWNSASTGYVESVKGRFSISRDNGENSMFLEMNSLRPDDTALYYCVKATGSYWGFPMDVWGQGTTVTVSS
VL: EIVLTQSPGTLSLSPGEGGTLSCRASQSVRSNYLAWYQRKPGQAPRLLIYATSNRATGIPDRFSGSGSGTDFTLTISRLEPEDFAVYFCQHYGDSPYTFGQGTKLEIKR
  binding: binds

B2: COV_2169 (antibody, V domains shown)
VH: EVQLVESGGGVVQPGRSLRLSCAASGFTFSRYAMHWVRQAPGKGLEWVAVISYEGSNKYYADSVKGRFTISRNNSNNTLSLQMNSLRPDDTAVYYCVRSGGHYFDAFDLWGQGTMVTVSS
VL: EIVLTQSPGTLSLSPGERATLSCRASQSVSRNYVAWYQQKPGQAPRLLIYGASSRATGIPDRFSGSGSGTDFTLTISRLEPEDFALYYCQQYGSSYTFGQGTKLEIKR
  binding: binds
